Values from PubChem BioAssay AID652259 (Drosophila RNAi Screening Center, 2013)
In all, the deposit lists about 22,000 reagents; below is an unselected part of those with a known target gene and a result. In the full data, 233 (1.1%) were called active. 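Light values are raw, unnormalised plate reads; the ratio scores behind the reporter calls were not deposited.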 A number with no mark means an inactive call. Reagents against one gene are numbered here. No sequences are given here. Not given: the amount of reagent, the time to read-out, the dose of the treatment.

- Aim: 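Genome-wide hunt for genes that control Wingless pathway activity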 (primary screen)
- Cell system: Drosophila clone 8 imaginal disc epithelial cells
- Knock-down reagent: long dsRNA against Drosophila genes
- Treatment: pathway stimulated by co-transfected Wingless expression plasmid
- Measured: 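Firefly luciferase from a tcf-site Wingless reporter, measured alongside co-transfected Renilla luciferase that tracks transfection; pathway stimulated by a Wingless plasmid; the firefly-to-Renilla ratio is not deposited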
- Reading the numbers: firefly reporter light: higher = more Wg reporter light, before normalisation; Renilla control light: higher = more transfected or surviving cells
- Active means: 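a knock-down is a candidate when at least two out of four statistical tests show it departing from its plate mean; one test alone signals a weak candidate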
- Calls: active = candidate regulator (raises or lowers reporter); inactive = not a candidate

CG13101 (GeneID 34221) — firefly reporter light, replicate 1: 13785; Renilla control light, replicate 1: 4152
her (GeneID 34992) — firefly reporter light, replicate 1: 8376; Renilla control light, replicate 1: 1449
unc-104 (GeneID 36876) — firefly reporter light, replicate 1: 8065; Renilla control light, replicate 1: 3360
AP-1mu (GeneID 41150) — firefly reporter light, replicate 1: 6426; Renilla control light, replicate 1: 1896
CG1983 (GeneID 43588) — firefly reporter light, replicate 1: 9547; Renilla control light, replicate 1: 3348
Vrp1 (GeneID 37521) — firefly reporter light, replicate 1: 9811; Renilla control light, replicate 1: 2952
frtz (GeneID 33349) — firefly reporter light, replicate 1: 2119; firefly reporter light, replicate 2: 8044; Renilla control light, replicate 1: 774; Renilla control light, replicate 2: 2371
osy (GeneID 43186) #1 — firefly reporter light, replicate 1: 20746; Renilla control light, replicate 1: 21606
osy (GeneID 43186) #2 — firefly reporter light, replicate 1: 23297; Renilla control light, replicate 1: 18640
osy (GeneID 43186) #3 — firefly reporter light, replicate 1: 1291; firefly reporter light, replicate 2: 3221; Renilla control light, replicate 1: 816; Renilla control light, replicate 2: 1285
CG3216 (GeneID 37376) — firefly reporter light, replicate 1: 2404; firefly reporter light, replicate 2: 5190; Renilla control light, replicate 1: 524; Renilla control light, replicate 2: 1414
Cyp6a13 (GeneID 35837) — firefly reporter light, replicate 1: 5292; Renilla control light, replicate 1: 2333
Hsp67Ba (GeneID 39076) — firefly reporter light, replicate 1: 6278; Renilla control light, replicate 1: 1680
Orcokinin (GeneID 37806) — firefly reporter light, replicate 1: 4192; firefly reporter light, replicate 2: 9592; Renilla control light, replicate 1: 1104; Renilla control light, replicate 2: 3218
CG17760 (GeneID 36385) — firefly reporter light, replicate 1: 11760; Renilla control light, replicate 1: 4221
hyx (GeneID 41086) — firefly reporter light, replicate 1: 6041; Renilla control light, replicate 1: 1793

Only “Renilla control light, replicate 1” (3 entries from above):
her (GeneID 34992) = 1449
unc-104 (GeneID 36876) = 3360
AP-1mu (GeneID 41150) = 1896

More results:
Mal-A5 (GeneID 35828) — firefly reporter light, replicate 1: 7609; Renilla control light, replicate 1: 3264
CG32075 (GeneID 326192) — firefly reporter light, replicate 1: 4872; Renilla control light, replicate 1: 2221
CG9961 (GeneID 33459) — firefly reporter light, replicate 1: 1788; firefly reporter light, replicate 2: 5451; Renilla control light, replicate 1: 804; Renilla control light, replicate 2: 1696
LRR (GeneID 35715) — firefly reporter light, replicate 1: 2918; firefly reporter light, replicate 2: 5324; Renilla control light, replicate 1: 880; Renilla control light, replicate 2: 2490
CG13248 (GeneID 40254) — firefly reporter light, replicate 1: 13734; Renilla control light, replicate 1: 5576
CG5382 (GeneID 42618) — firefly reporter light, replicate 1: 2881; firefly reporter light, replicate 2: 7912; Renilla control light, replicate 1: 1152; Renilla control light, replicate 2: 2283
CG8777 (GeneID 35921) — firefly reporter light, replicate 1: 7627; Renilla control light, replicate 1: 2256
Sardh (GeneID 37026) — firefly reporter light, replicate 1: 10272; Renilla control light, replicate 1: 4163
CG32017 (GeneID 317823) — firefly reporter light, replicate 1: 3846; Renilla control light, replicate 1: 1522
